Measured values from PMC8786740.

T1: BRI1-ASSOCIATED RECEPTOR KINASE 1 (BAK1) fused to GFP, from the BAK1pro:BAK1-GFP/bak1-4/iGLV6 line (Arabidopsis thaliana) (UniProt Q94F62)
T1 sequence: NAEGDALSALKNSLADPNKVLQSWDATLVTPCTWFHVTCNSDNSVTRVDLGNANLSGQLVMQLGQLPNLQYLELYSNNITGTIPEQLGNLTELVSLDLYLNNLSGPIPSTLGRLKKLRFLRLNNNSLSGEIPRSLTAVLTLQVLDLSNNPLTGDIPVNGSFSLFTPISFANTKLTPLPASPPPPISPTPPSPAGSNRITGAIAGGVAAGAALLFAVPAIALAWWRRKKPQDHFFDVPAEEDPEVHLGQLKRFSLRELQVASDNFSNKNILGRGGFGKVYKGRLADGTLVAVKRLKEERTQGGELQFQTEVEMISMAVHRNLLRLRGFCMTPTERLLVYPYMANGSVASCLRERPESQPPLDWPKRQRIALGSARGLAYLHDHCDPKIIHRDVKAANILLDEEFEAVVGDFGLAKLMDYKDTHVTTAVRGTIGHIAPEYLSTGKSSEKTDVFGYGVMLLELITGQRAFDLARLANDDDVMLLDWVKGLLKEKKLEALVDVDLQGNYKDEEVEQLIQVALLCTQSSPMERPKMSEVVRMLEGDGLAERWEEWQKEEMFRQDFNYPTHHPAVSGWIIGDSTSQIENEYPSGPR


Target: T1, BRI1-ASSOCIATED RECEPTOR KINASE 1 (BAK1) fused to GFP, from the BAK1pro:BAK1-GFP/bak1-4/iGLV6 line (Arabidopsis thaliana)
Assay: affinity purification with mass spectrometry; BAK1-GFP as bait on anti-GFP uMACS MicroBeads; microsomal extracts (1% Triton X-100) of formaldehyde cross-linked Arabidopsis seedlings, mock or 2 uM estradiol (GLV6 induction) for 24 h; on-bead digestion, LC-MS/MS

Row | binding | Binder
1 | binds | PXY-CORRELATED 3 (PXC3), endogenous (receptor, UniProt O22938 24-890) QLSDEATLVAINRELGVPGWSSNGTDYCTWVGLKCGVNNSFVEMLDLSGLQLRGNVTLISDLRSLKHLDLSGNNFNGRIPTSFGNLSELEFLDLSLNRFVGAIPVEFGKLRGLRAFNISNNLLVGEIPDELKVLERLEEFQVSGNGLNGSIPHWVGNLSSLRVFTAYENDLVGEIPNGLGLVSELELLNLHSNQLEGKIPKGIFEKGKLKVLVLTQNRLTGELPEAVGICSGLSSIRIGNNELVGVIPRTIGNISGLTYFEADKNNLSGEIVAEFSKCSNLTLLNLAANGFAGTIPTELGQLINLQELILSGNSLFGEIPKSFLGSGNLNKLDLSNNRLNGTIPKELCSMPRLQYLLLDQNSIRGDIPHEIGNCVKLLQLQLGRNYLTGTIPPEIGRMRNLQIALNLSFNHLHGSLPPELGKLDKLVSLDVSNNLLTGSIPPLLKGMMSLIEVNFSNNLLNGPVPVFVPFQKSPNSSFLGNKELCGAPLSSSCGYSEDLDHLRYNHRVSYRIVLAVIGSGVAVFVSVTVVVLLFMMREKQEKAAAKNVDVEENVEDEQPAIIAGNVFLENLKQGIDLDAVVKATMKESNKLSTGTFSSVYKAVMPSGMIVSVKKLKSMDRAISHHQNKMIRELERLSKLCHDHLVRPIGFVIYEDVALLLHQHLPNGNLTQLIHESTKKPEYQPDWPMRLSIAVGAAEGLAFLHQVAIIHLDVSSSNVLLDSGYKAVLGEIEISKLLDPSRGTASISSVAGSFGYIPPEYAYTMQVTAPGNVYSYGVVLLEILTSRAPVEEEFGEGVDLVKWVHGASARGETPEQILDAKLSTVSFAWRREMLAALKVALLCTDITPAKRPKMKKVVEMLQEVKQIK
2 | binds | PEP1 RECEPTOR 1 (PEPR1), endogenous (receptor, UniProt Q9SSL9 29-1123) LNSDGLTLLSLLKHLDRVPPQVTSTWKINASEATPCNWFGITCDDSKNVASLNFTRSRVSGQLGPEIGELKSLQILDLSTNNFSGTIPSTLGNCTKLATLDLSENGFSDKIPDTLDSLKRLEVLYLYINFLTGELPESLFRIPKLQVLYLDYNNLTGPIPQSIGDAKELVELSMYANQFSGNIPESIGNSSSLQILYLHRNKLVGSLPESLNLLGNLTTLFVGNNSLQGPVRFGSPNCKNLLTLDLSYNEFEGGVPPALGNCSSLDALVIVSGNLSGTIPSSLGMLKNLTILNLSENRLSGSIPAELGNCSSLNLLKLNDNQLVGGIPSALGKLRKLESLELFENRFSGEIPIEIWKSQSLTQLLVYQNNLTGELPVEMTEMKKLKIATLFNNSFYGAIPPGLGVNSSLEEVDFIGNKLTGEIPPNLCHGRKLRILNLGSNLLHGTIPASIGHCKTIRRFILRENNLSGLLPEFSQDHSLSFLDFNSNNFEGPIPGSLGSCKNLSSINLSRNRFTGQIPPQLGNLQNLGYMNLSRNLLEGSLPAQLSNCVSLERFDVGFNSLNGSVPSNFSNWKGLTTLVLSENRFSGGIPQFLPELKKLSTLQIARNAFGGEIPSSIGLIEDLIYDLDLSGNGLTGEIPAKLGDLIKLTRLNISNNNLTGSLSVLKGLTSLLHVDVSNNQFTGPIPDNLEGQLLSEPSSFSGNPNLCIPHSFSASNNSRSALKYCKDQSKSRKSGLSTWQIVLIAVLSSLLVLVVVLALVFICLRRRKGRPEKDAYVFTQEEGPSLLLNKVLAATDNLNEKYTIGRGAHGIVYRASLGSGKVYAVKRLVFASHIRANQSMMREIDTIGKVRHRNLIKLEGFWLRKDDGLMLYRYMPKGSLYDVLHGVSPKENVLDWSARYNVALGVAHGLAYLHYDCHPPIVHRDIKPENILMDSDLEPHIGDFGLARLLDDSTVSTATVTGTTGYIAPENAFKTVRGRESDVYSYGVVLLELVTRKRAVDKSFPESTDIVSWVRSALSSSNNNVEDMVTTIVDPILVDELLDSSLREQVMQVTELALSCTQQDPAMRPTMRDAVKLLEDVKHLARSCSSDSVR
3 | binds | BAK1-… RECEPTOR-LIKE KINASE 2 (BIR2), endogenous (receptor, UniProt Q9LSI9 29-605) ADEDDIRCLRGLKASLTDPQNALKSWNFDNTTLGFLCNFVGVSCWNNQENRVINLELRDMGLSGKIPDSLQYCASLQKLDLSSNRLSGNIPTELCNWLPFLVSLDLSNNELNGEIPPDLAKCSFVNSLVLSDNRLSGQIPVQFSALGRLGRFSVANNDLSGRIPVFFSSPSYSSDDFSGNKGLCGRPLSSSCGGLSKKNLGIIIAAGVFGAAASMLLAFGIWWYYHLKWTRRRRSGLTEVGVSGLAQRLRSHKLTQVSLFQKPLVKVKLGDLMAATNNFNSENIIVSTRTGTTYKALLPDGSALAVKHLSTCKLGEREFRYEMNQLWELRHSNLAPLLGFCVVEEEKFLVYKYMSNGTLHSLLDSNRGELDWSTRFRIGLGAARGLAWLHHGCRPPILHQNICSSVILIDEDFDARIIDSGLARLMVPSDNNESSFMTGDLGEFGYVAPEYSTTMLASLKGDVYGLGVVLLELATGLKAVGGEGFKGSLVDWVKQLESSGRIAETFDENIRGKGHDEEISKFVEIALNCVSSRPKERWSMFQAYQSLKAIAEKQGYSFSEQDDDFPLIFDTQENEKV

No constants are given. Whether binding was seen depends on the method and setting. Binding seen in cells or lysates may run through a third protein. Here binding means that the protein was enriched with, or labelled near, the bait; the list need not be complete. Sequences can lack the tags named with a protein.
